At least one structure is not confirmed: it was looked up by name or label, or the drawing left a doubt.
What was measured:
C3H10T1/2v-src/v-myc = assay: Inhibition of cytodieresis and DNA replication, nucleation state and BrdU uptake (Examples 5, 7); format: cell-based, mouse; details: for S %C: %S values with respect to control, drug T0-T48, BrdU T24-48; for % 1N / % 3/4N / % >4N: drug T0-T48, concentration printed with the drug; for % 2N: drug T0-T48, concentration printed with the drug (CD 400 nM)
Method: (§1) Each cell culture was plated on 35mm plates at a 1×10^4cells/plate density, under the standard conditions described in example 1.
(§2) In a control assay series thereof the sole BrdU and 0.11% DMSO, have been administered to C3H10T1/2 and in C3H10T1/2/v-src-/myc cells respectively, for 24h (T0-T24) as a control of the proliferation phase.
(§3) In each of the above assays CD and BrdU concentrations are the same, namely 400 nM and […] respectively. The administration was carried out on strictly proliferating cells. The contemporaneous measurement of BrdU uptake and %S has ensured the highest stringency of results on DNA replication. Percentage of mononucleate, binucleate, tri/tetranucleate and with >4 nuclei resulting cells has been also measured. After treatment, cells have been processed and analyzed as reported in reference 18.
(§4) In particular the first assay series of example 5 has been carried out with 650 nM Latrunculin B, 700 nM Jasplakinolide, and 100 nM condramide B instead of CD. The second assay series of example 5 has been carried out with 16 µM 13,14,21,22-tetrahydrocytochalasin B, 2 µM 21,22-dihydrocytochalasin B, 1 µM deoxyphomin, 4 µM Cytochalasin F (CF) 8 µM Cytochalasin V (CV) , and 0,5 µM CD as a control on MEF cells.

C3H10T1/2 = assay: as above; format: cell-based, mouse; details: for S %C: %S values with respect to control, drug T0-T48, BrdU T24-48; for % 1N / % 3/4N / % >4N: drug T0-T48, concentration printed with the drug; for % 2N: drug T0-T48, concentration printed with the drug (CD 400 nM)
Method: as §1, §2, §3, §4

MEF cells = assay: Inhibition of cytodieresis and DNA replication, nucleation state and BrdU uptake (Example 7); format: cell-based, mouse; details: concentration printed with the drug; for S %C: %S values with respect to control
normal cells = assay: Dose/response: concentration arresting normal cells in the intermitotic phase (CAP); format: cell-based; details: standard conditions; units given within the value
Method: It generally results in cell cycle arrest at the binucleate stage in at least 40% of class A compounds treated proliferating normal cells, using the minimal drug concentration (i.e. sufficient to reversible induce its effects, on target cells, without causing significant damage, experimentally defined by dose/response curves), giving the above result without significant toxicity and an incubation time generally ranging from 12 to 48 hours depending on cell type.
As to the CAP parameter, the corresponding value is a class A compound concentration causing the arrest of at least the 40% of normal cells in the intermitotic stage; such concentration is experimental deduced by dose/response experiments that define the appropriate value range for different cell types and compounds.
For the above class A compounds, under standard conditions this value ranges within 1 nM to 40 µM concentrations.. […]
In the light of these tests, the CAP and CACT values to be assigned to several class A compounds as the concentration range yielding the cytodieresis arrest, and, within said concentration range, the value of the minimum concentration required for attaining this effect, forming the preferred embodiment, has been determined. […]

## CO[C@@H]1C(=O)O[C@H](C)[C@@H](C)C=C(C)C[C@H](C)C(=O)N[C@@H](C)C(=O)N(C)[C@H](Cc2c(Cl)[nH]c3ccccc23)C(=O)NC1c1ccc(O)cc1 (stereo partly shown) [Chondramide B]
C3H10T1/2v-src/v-myc
  S %C: 97%
  % 1N: 88%
  % 3/4N: 5%
  % >4N: 3%
  % 2N: 4%
C3H10T1/2
  S %C: 18%
  % 1N: 32%
  % 3/4N: 3%
  % >4N: 1%
  % 2N: 64%

## C[C@H]1C/C=C/[C@H]2[C@@H]3O[C@]3(C)[C@@H](C)[C@H]3[C@H](Cc4ccccc4)NC(=O)[C@]32OC(=O)/C=C/[C@@H](O)CCC1 [Cytochalasin F]
MEF cells
  S %C: 2,2%
  % 1N: 34%
  % 2N: 66%
  % 3/4N: 0%
  % >4N: 0%

## C/C1=C\[C@H](C)C[C@H](C)OC(=O)C[C@H](c2ccc(O)cc2)NC(=O)[C@@H](Cc2c(Br)[nH]c3ccccc23)N(C)C(=O)[C@H](C)NC(=O)[C@@H](C)C1 [Jasplakinolide]
C3H10T1/2v-src/v-myc
  S %C: 96%
  % 1N: 84%
  % 3/4N: 4%
  % >4N: 3%
  % 2N: 9%
C3H10T1/2
  S %C: 24%
  % 1N: 44%
  % 3/4N: 4%
  % >4N: 1%
  % 2N: 51%
Normal cells
  CAP concentration range yielding the cytodieresis arrest: 50 nM - 3µM

## C=C1C(C)C2C(Cc3ccccc3)NC(=O)C23OC(=O)CCC(O)CCCC(C)CCCC3C1O (stereo not shown) [ThydrocytB, 13,14,21,22-tetrahydrocytochalasin B]
MEF cells
  S %C: 9,3%
  % 1N: 44%
  % 2N: 56%
  % 3/4N: 0%
  % >4N: 0%

## C=C1[C@@H](C)[C@H]2[C@H](Cc3ccccc3)NC(=O)[C@]23OC(=O)CC[C@H](O)CCC[C@@H](C)C/C=C/[C@H]3[C@@H]1O [dihydrocytochalasin B, 21,22-dihydrocytochalasin B]
MEF cells
  S %C: 3,5%
  % 1N: 34%
  % 2N: 66%
  % 3/4N: 0%
  % >4N: 0%
Normal cells
  CAP concentration range yielding the cytodieresis arrest: 600 nM - 8µM
